Test results as given in patent US12473377B2 (Synthis Therapeutics, Inc., priority 2016, dated 2025).

Experiment: general procedure: Fmoc solid-phase peptide synthesis; 2-chlorotrityl chloride resin; HBTU/HOBT, DIPEA

Row | Substance | conjugation yield (conjugation step) [%] | step yield (late stage modification step) [%]
1 | (2R,5S,8S,11S,14S,19S)-19-amino-5,8,14-tris (carboxy methyl)-11-(3-guanidinopropyl)-2-(((2-(methyl(2-(4-(4-(4-(6-methylpyridin-2-yl)-1H-pyrazol-3-yl)pyridin-2-yl)phenoxy)ethyl)carbamoyloxy)ethyl)disulfanyl) methyl)-4,7,10,13,16-pentaoxo-3,6,9,12,15-pentaazaicosane-1,20-dioic acid | 31 | –
2 | (2R,5S,8S,11S,14S,19S)-19-(2-(tert-butoxy carbonyl aminooxy)acetamido)-5,8, 14-tris(carboxymethyl)-11-(3-guanidinopropyl)-2-(((2-(methyl(2-(4-(4-(4-(6-methylpyridin-2-yl)-1H-pyrazol-3-yl)pyridin-2-l)phenoxy)ethyl)carbamoyloxy)ethyl)disulfanyl)methyl)-4,7,10, 13,16-pentaoxo-3,6,9,12,15-pentaazaicosane-1,20-dioic acid | – | 33
